Our source for the intracellular bacterial bioluminescence values is the supplement of paper PMC12578635.

Some of the results follow. Cut-off read from the data, not from the text of the source: active = 150% or more and inactive = the rest. Many values rest on one well or one pass, so single values are uncertain.

This experiment deals with Staphylococcus aureus JE2-lux inside RAW 264.7 macrophages. Kind of experiment: intracellular bacterial bioluminescence relative to DMSO vehicle; higher = higher intracellular bacterial metabolic activity. To be noted: 10 µM; treatment time 4 h; gentamicin 50 µg/ml.
For `O=C(Nc1ccc2c(c1)CCCN2C(=O)C1CC1)c1ccccc1C(F)(F)F`, the intracellular bacterial bioluminescence was inactive: 115%. With `O=C(CN1CCc2nc(N3CCCC3)[nH]c(=O)c2C1)Nc1nccs1` the figure was inactive: 92.7%; with `COc1cc(NC(=O)c2cnn3c4c(cnc23)C(=O)CC(C)(C)C4)cc(OC)c1`, inactive: 86.4%; with `Cc1ccc(NC(=O)c2ccnc(Nc3ccc(F)cc3)c2)cc1`, inactive: 112%. With `COCCN(Cc1cc2ccc(C)c(C)c2nc1Cl)C(=O)Nc1ccccc1C` the figure was inactive: 84%; with `COC(=O)c1sc2ccccc2c1NC(=O)c1cc(Cl)ccc1[N+](=O)[O-]`, inactive: 94.7%; with `CCOc1ccc(NC(=O)Nc2c(-c3cccnc3)[nH]c3ccccc23)cc1`, inactive: 88.9%. With `Nc1nc(SCC(=O)NCc2ccccc2)nc2sc3c(c12)CCC3`, the intracellular bacterial bioluminescence is inactive: 77.2%. For the compound `CC1=C(C(=O)OC2CCCCCCC2)C(c2ccccc2Cl)NC(=O)N1` (configuration not stated), the intracellular bacterial bioluminescence was inactive: 32.4%.

For the compound `COc1cc(C2CC(=O)Nc3c2cnn3-c2nc3ccccc3s2)ccc1OCc1ccc(C)cc1` (configuration not stated), the intracellular bacterial bioluminescence is inactive: 105%.

As for `CC(C)CCNC(=O)CSc1nc(-c2cccc(Cl)c2)nc2cc(=O)[nH]n12`, the intracellular bacterial bioluminescence is inactive: 102%. `CCOc1ccc(NC(=O)Cn2c3ccccc3n3c(=O)cc(-c4ccccn4)nc23)cc1`: the intracellular bacterial bioluminescence is inactive: 92.7%. For the compound `Cc1cc(NS(=O)(=O)c2ccc(NC(=O)c3cnc4sccn4c3=O)cc2)nc(C)n1`, the intracellular bacterial bioluminescence was inactive: 122%. As to `COc1ccc(C)c2sc(N(Cc3ccccc3)C(=O)c3ccco3)nc12`, the intracellular bacterial bioluminescence was inactive: 121%. For `COCCNC(=O)COc1ncnc2onc(-c3ccc(F)cc3)c12`, the intracellular bacterial bioluminescence was inactive: 111%. With `COc1ccccc1Cn1c(=S)[nH]c2cc(C(=O)N3CCCCC3)ccc2c1=O` the figure was inactive: 18.4%; with `Cn1ncc2c1CCc1sc(NC(=O)CCC3CCCCC3=O)nc1-2` (configuration not stated), inactive: 74.3%; with `Cc1oc2ncnc(N3CCCC(C(=O)Nc4ccc(F)c(F)c4)C3)c2c1C` (configuration not stated), inactive: 85.7%. With `CC1CCc2c(sc3ncn(C4CCN(C(=O)c5cc[nH]n5)CC4)c(=O)c23)C1` (configuration not stated) the figure was inactive: 87.9%. With `COc1ccc(C(=O)NCCc2cc3c(C)ccc(C)c3[nH]c2=O)c(OC)c1` the figure was inactive: 97.7%; with `O=C(CSCc1ccccc1)Nc1cccc2c1C(=O)NC2=O`, inactive: 83.4%. On to `CC(CCc1ccccc1)NC(=O)Cn1c2c(c(=O)n3nc(-c4ccccc4)nc13)CCC2` (configuration not stated), for which the intracellular bacterial bioluminescence was inactive: 83.3%. For `Cc1cc(Oc2ncnc(N)c2[N+](=O)[O-])cc(C(C)C)c1` the value was inactive: 79.9%; for `CC(C)[C@H](Cn1nc(C2CC2)ccc1=O)NC(=O)c1cnn2cccnc12`, inactive: 91.1%; for `COc1ccc(NC(=O)C(=O)Nc2cc3c4c(c2)CC(=O)N4CCC3)cc1`, inactive: 60%. For `CCOC(=O)CSC1=C(C#N)C(c2ccccc2[N+](=O)[O-])C(C(=O)OC)C(=O)N1` (configuration not stated) the value was inactive: 96.9%; for `O=C(O)c1ccc2c(c1)C(=O)N(CCCN1CCOCC1)C2=O`, inactive: 115%; for `CC(=O)c1csc(NC(=O)COc2cccc3nsnc23)n1`, inactive: 3.05%. For `COc1ccc(NC(=O)N2c3ccccc3CC2C(N)=O)c(OC)c1` (configuration not stated) the value was inactive: 104%; for `COc1ccc(-n2ccn(CC(=O)Nc3ccc(Br)cc3F)c(=O)c2=O)cc1Cl`, inactive: 50%; for `NC(=O)C1CCN(C2=NC(=O)/C(=C/c3cn(-c4ccccc4)nc3-c3ccncc3)S2)CC1`, inactive: 94.3%. Turning to `O=C(NCC1COc2ccccc2O1)c1cc2c(=O)n3ccccc3nc2s1` (configuration not stated), the intracellular bacterial bioluminescence was inactive: 114%.

Turning to `O=C(Nc1nc2c(s1)CCCC2)c1ccc(-c2nc3ccccc3s2)s1`, the intracellular bacterial bioluminescence is inactive: 114%.

In the case of `COc1cccc(NC(=O)Cn2c(C)cc(=O)n3nc(-c4ccccc4C)nc23)c1`, the intracellular bacterial bioluminescence was inactive: 93.7%. With `O=C(CC1Nc2ccccc2NC1=O)Nc1ccc(N2CCCCC2)cc1` (configuration not stated), the intracellular bacterial bioluminescence was inactive: 82.7%.

`Cc1cc(NC(=O)NCCCSc2nnc(C)s2)no1`: the intracellular bacterial bioluminescence is inactive: 96.5%.

In the case of `C=CCOc1ccccc1NC(=O)c1c(-c2ccncc2)noc1C`, the intracellular bacterial bioluminescence is inactive: 108%. On to `COc1ccccc1CNC(=O)C1CCN(c2ncc3nc(-c4ccccc4)oc3n2)CC1`, for which the intracellular bacterial bioluminescence was inactive: 81.7%. Turning to `COc1ccc(S(=O)(=O)N(C(C)=O)c2ccc3oc(C)c(C(C)=O)c3c2)cc1`, the intracellular bacterial bioluminescence was inactive: 119%. Consider `O=C(N/N=C/c1ccccc1O)c1cc(Br)ccc1O`, for which the intracellular bacterial bioluminescence is inactive: 101%. `CC1Cc2cc(-c3nn(-c4ccccc4)cc3/C=C3\SC(=S)NC3=O)ccc2O1` (configuration not stated): the intracellular bacterial bioluminescence is inactive: 96.6%. For `COc1ccc(O)c(NS(=O)(=O)c2ccc3c(c2)NC(=O)CO3)c1` the value was inactive: 86.3%; for `Cc1ccc(NC(=O)CC2C(=O)Nc3ccccc3N2C(=O)c2ccc(Br)cc2)cc1C` (configuration not stated), inactive: 19.6%; for `CC[C@@H](Cn1ncc2ccccc2c1=O)NC(=O)c1ccc2c(c1)n(C)c(=O)n2C`, inactive: 109%. With `O=C(CSc1ncnc2c1oc1ccccc12)NCCc1ccccc1` the figure was inactive: 84.4%. Take `Cc1cc(C)c(NC(=O)CS(=O)CC(=O)NC2CCS(=O)(=O)C2)c(C)c1` (configuration not stated): the intracellular bacterial bioluminescence was inactive: 109%. With `Cn1c(=O)c2cc(C(=O)Nc3nccs3)sc2n(C)c1=O` the figure was inactive: 94.6%; with `N#Cc1c(N)n(-c2ccc(NC(=O)c3cccs3)cc2)c2nc3ccccc3nc12`, inactive: 38.4%. Take `CC1=C(C(=O)Nc2ccc(Br)cc2)C(c2ccc(C(C)C)cc2)NC(=O)N1` (configuration not stated): the intracellular bacterial bioluminescence is inactive: 97.7%.

With `COc1ccc(C(=O)CSc2nc(COc3ccccc3)nc3ccccc23)cc1`, the intracellular bacterial bioluminescence was inactive: 100%. With `Cc1cc(NC(=O)CSC2=NS(=O)(=O)c3ccccc3N2)[nH]n1` the figure was inactive: 114%; with `COc1cc2ncc(C(=O)NCc3cccnc3)c(O)c2cc1OC`, inactive: 103%; with `COc1cc2cc(C3CC(c4ccco4)=NN3)c(Cl)nc2cc1OC` (configuration not stated), inactive: 124%. Consider `CN1C(=O)c2cccc(NC(=O)c3ccc(S(=O)(=O)N(C)CC4CCCO4)cc3)c2C1=O` (configuration not stated), for which the intracellular bacterial bioluminescence is inactive: 105%. For `COc1ccc(C(=O)Nc2nc3c(cc4c5c(cccc53)CC4)s2)c(OC)c1` the value was inactive: 97.7%.

For the compound `O=C(NC1CCCCC1)C(c1ccc2ncccc2c1)N(C(=O)c1cccs1)c1ccc(F)cc1` (configuration not stated), the intracellular bacterial bioluminescence was inactive: 92.7%. For `O=C(O)c1cccc(S(=O)(=O)/N=C2/C=C(NS(=O)(=O)c3ccccc3)C(=O)c3ccccc32)c1` the value was inactive: 73.7%.
